Protein sequences, listed by entry. Tags and fused reporters are not part of them. Residues count along the entry.
UniProt O43491: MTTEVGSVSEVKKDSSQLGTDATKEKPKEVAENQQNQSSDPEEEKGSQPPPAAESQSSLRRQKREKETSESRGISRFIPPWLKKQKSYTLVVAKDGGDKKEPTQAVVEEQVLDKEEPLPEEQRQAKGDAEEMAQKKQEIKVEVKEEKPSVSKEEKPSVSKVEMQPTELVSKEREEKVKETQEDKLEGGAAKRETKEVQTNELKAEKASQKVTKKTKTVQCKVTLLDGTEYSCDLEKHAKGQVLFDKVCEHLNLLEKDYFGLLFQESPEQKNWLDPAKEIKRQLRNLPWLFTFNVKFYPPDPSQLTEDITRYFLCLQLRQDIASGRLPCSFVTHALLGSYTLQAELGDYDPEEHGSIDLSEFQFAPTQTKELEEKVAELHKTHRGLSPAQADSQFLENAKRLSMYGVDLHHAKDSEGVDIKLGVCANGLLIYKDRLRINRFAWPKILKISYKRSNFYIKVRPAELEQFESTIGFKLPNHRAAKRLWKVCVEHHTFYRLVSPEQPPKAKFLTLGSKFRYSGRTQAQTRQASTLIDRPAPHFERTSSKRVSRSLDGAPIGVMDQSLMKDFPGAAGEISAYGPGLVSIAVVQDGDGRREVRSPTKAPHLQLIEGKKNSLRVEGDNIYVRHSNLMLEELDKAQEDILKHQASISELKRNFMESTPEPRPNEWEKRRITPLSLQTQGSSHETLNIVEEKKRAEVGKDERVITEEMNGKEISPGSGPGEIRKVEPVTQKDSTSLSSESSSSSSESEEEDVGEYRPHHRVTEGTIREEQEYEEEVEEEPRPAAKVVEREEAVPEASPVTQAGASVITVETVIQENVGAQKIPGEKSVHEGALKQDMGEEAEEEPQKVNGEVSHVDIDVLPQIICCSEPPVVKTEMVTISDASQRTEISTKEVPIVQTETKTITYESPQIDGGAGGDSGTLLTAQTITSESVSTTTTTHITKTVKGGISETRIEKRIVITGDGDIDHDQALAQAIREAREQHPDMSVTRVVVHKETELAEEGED
UniProt Q9Y2J2: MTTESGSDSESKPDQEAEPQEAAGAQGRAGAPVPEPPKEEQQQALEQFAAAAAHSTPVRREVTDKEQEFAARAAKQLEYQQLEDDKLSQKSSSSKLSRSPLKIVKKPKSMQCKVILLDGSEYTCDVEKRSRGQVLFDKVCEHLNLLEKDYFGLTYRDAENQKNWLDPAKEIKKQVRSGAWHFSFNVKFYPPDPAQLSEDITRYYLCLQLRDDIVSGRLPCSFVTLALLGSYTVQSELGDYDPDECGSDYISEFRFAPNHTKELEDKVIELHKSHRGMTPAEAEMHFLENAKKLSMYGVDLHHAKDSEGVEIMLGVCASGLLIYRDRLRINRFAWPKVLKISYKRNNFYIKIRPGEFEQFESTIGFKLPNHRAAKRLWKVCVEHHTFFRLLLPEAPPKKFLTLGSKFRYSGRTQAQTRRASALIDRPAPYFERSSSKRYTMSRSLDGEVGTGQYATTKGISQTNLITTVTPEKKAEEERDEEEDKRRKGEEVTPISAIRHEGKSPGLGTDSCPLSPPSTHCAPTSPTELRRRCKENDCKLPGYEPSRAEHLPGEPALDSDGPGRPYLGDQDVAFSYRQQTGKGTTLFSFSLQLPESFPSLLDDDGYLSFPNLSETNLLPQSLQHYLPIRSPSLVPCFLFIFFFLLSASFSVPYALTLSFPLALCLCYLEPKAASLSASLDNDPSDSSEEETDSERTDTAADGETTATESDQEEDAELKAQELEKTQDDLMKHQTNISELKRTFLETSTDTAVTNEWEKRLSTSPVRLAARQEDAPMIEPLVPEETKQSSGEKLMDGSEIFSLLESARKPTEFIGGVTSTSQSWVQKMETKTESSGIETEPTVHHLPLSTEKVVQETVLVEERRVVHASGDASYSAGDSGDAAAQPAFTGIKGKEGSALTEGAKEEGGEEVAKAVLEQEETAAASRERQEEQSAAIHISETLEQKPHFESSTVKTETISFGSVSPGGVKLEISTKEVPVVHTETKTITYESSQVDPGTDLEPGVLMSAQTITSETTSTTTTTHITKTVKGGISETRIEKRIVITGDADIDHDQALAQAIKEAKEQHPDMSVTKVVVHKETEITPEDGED
UniProt Q14126, residues 50-1118: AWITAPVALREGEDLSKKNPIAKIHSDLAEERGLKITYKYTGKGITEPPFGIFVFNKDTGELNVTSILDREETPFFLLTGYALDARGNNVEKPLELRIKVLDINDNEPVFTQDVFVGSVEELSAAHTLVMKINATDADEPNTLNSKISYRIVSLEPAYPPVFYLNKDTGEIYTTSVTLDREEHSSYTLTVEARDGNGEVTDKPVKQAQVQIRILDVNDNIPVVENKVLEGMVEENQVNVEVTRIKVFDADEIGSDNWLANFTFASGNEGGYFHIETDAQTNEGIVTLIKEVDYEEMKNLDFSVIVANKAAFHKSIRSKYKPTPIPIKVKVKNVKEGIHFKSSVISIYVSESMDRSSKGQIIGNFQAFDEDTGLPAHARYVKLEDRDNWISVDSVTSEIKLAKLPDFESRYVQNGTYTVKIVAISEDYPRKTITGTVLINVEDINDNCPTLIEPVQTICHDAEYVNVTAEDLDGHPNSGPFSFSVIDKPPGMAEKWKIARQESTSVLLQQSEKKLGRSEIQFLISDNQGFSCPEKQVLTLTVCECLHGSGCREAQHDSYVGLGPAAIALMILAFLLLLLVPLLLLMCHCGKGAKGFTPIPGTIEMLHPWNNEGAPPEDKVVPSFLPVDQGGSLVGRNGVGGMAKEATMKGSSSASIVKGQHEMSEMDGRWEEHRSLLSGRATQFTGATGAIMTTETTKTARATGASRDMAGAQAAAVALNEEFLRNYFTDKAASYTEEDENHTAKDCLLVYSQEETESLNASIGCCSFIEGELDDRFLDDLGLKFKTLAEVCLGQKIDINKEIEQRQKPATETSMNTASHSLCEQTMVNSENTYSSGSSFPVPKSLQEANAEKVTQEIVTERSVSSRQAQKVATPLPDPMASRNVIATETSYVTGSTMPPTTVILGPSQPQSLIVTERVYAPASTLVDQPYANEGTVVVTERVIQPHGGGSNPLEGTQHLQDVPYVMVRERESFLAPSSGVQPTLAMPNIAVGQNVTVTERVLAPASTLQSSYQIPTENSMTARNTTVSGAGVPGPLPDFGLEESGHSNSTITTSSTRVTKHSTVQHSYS

In publication PMC10723409:

T1: TMEM24(1–630)-APEX2-eGFP (UniProt O14523)
T1 sequence: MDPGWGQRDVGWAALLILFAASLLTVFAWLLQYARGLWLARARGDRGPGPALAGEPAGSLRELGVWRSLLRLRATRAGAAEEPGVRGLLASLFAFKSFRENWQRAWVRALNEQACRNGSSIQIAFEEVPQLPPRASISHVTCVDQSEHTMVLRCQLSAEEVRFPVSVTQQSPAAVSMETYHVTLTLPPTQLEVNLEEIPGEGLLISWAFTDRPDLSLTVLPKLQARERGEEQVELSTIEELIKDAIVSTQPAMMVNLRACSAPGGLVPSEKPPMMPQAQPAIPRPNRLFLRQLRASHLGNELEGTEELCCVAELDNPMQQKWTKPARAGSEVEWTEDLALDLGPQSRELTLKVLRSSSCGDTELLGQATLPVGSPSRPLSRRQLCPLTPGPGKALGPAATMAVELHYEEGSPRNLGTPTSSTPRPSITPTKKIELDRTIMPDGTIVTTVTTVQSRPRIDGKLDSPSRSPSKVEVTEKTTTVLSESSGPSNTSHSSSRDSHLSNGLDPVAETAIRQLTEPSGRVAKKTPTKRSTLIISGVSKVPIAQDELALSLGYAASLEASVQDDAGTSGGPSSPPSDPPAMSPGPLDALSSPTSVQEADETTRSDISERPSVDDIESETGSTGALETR

T2: TMEM24(1–666)-APEX2-eGFP (UniProt O14523)
T2 sequence: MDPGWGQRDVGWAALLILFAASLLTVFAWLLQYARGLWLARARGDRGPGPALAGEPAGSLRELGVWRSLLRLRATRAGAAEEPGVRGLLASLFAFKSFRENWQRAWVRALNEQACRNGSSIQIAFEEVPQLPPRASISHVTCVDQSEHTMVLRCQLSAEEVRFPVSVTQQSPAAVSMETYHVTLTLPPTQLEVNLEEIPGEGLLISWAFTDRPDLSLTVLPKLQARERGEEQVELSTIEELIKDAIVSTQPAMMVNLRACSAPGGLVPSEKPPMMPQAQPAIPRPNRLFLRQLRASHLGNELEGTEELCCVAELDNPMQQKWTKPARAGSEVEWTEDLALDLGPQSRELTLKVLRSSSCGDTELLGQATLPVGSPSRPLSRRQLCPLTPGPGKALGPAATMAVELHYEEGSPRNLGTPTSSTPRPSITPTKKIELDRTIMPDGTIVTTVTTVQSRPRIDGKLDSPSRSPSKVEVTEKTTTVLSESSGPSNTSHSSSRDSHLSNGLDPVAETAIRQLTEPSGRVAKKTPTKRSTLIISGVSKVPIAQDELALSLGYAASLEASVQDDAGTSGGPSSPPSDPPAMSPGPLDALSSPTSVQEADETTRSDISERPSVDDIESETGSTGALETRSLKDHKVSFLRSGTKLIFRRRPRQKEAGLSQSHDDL

T3: TMEM24-APEX2-eGFP (full length TMEM24 fused to APEX2) (UniProt O14523)
T3 sequence: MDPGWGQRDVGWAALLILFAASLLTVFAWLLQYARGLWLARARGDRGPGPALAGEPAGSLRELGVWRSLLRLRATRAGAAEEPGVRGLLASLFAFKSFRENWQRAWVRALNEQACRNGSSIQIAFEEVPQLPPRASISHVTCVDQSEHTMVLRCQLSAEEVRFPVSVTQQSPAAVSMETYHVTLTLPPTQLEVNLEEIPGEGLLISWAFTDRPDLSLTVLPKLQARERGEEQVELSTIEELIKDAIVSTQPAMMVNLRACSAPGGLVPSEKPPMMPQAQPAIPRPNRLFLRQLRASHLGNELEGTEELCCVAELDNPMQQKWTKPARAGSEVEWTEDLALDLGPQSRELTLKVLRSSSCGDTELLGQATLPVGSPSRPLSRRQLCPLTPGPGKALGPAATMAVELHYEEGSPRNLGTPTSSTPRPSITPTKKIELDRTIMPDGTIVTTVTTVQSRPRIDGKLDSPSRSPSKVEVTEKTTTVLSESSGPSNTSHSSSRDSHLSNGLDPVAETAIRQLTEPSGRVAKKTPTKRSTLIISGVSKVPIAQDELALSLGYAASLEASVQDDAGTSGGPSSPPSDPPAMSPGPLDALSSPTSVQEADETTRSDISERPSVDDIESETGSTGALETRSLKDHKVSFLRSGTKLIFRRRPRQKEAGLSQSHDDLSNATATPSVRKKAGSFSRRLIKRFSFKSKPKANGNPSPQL


Experiments:
Test in all cases: proximity labelling; APEX2-eGFP fusions of TMEM24 constructs expressed in HEK293 cells; 500 uM biotin tyramide 1 hr, 1 mM H2O2 1 min; biotinylated proteins purified on streptavidin magnetic beads; LC MS/MS with label free quantitation in triplicate; enrichment of the grouped TMEM24 full length, 1-630 and 1-666 samples against controls lacking a.a. 414-630
TMEM24(1–630)-APEX2-eGFP [1] = biological target: T1, TMEM24(1–630)-APEX2-eGFP
TMEM24(1–666)-APEX2-eGFP [2] = biological target: T2, TMEM24(1–666)-APEX2-eGFP
[3] = biological target: T3, TMEM24-APEX2-eGFP (full length TMEM24 fused to APEX2)
TMEM24(1–630)-APEX2-eGFP [4] = biological target: T1, TMEM24(1–630)-APEX2-eGFP; remark: listed apart in the source
TMEM24(1–666)-APEX2-eGFP [5] = biological target: T2, TMEM24(1–666)-APEX2-eGFP; remark: listed apart in the source
[6] = biological target: T3, TMEM24-APEX2-eGFP (full length TMEM24 fused to APEX2); remark: listed apart in the source

Row | binding (TMEM24(1–630)-APEX2-eGFP [1]) | binding (TMEM24(1–666)-APEX2-eGFP [2]) | binding [3] | binding (TMEM24(1–630)-APEX2-eGFP [4]) | binding (TMEM24(1–666)-APEX2-eGFP [5]) | binding [6] | Molecule
1 | binds | binds | binds |  |  |  | band 4.1 protein 4.1G (from UniProt O43491 1-1005)
2 | binds | binds | binds |  |  |  | band 4.1 protein 4.1B (from UniProt Q9Y2J2 1-1087)
3 | binds | binds | binds |  |  |  | desmoglien-2 (DSG-2) (from UniProt Q14126 50-1118)
4 |  |  |  | binds | binds | binds | membrane palmitoylated protein 1 (MPP1) (protein, UniProt Q00013 1-466) MTLKASEGESGGSMHTALSDLYLEHLLQKRSRPEAVSHPLNTVTEDMYTNGSPAPGSPAQVKGQEVRKVRLIQFEKVTEEPMGITLKLNEKQSCTVARILHGGMIHRQGSLHVGDEILEINGTNVTNHSVDQLQKAMKETKGMISLKVIPNQQSRLPALQMFMRAQFDYDPKKDNLIPCKEAGLKFATGDIIQIINKDDSNWWQGRVEGSSKESAGLIPSPELQEWRVASMAQSAPSEAPSCSPFGKKKKYKDKYLAKHSSIFDQLDVVSYEEVVRLPAFKRKTLVLIGASGVGRSHIKNALLSQNPEKFVYPVPYTTRPPRKSEEDGKEYHFISTEEMTRNISANEFLEFGSYQGNMFGTKFETVHQIHKQNKIAILDIEPQTLKIVRTAELSPFIVFIAPTDQGTQTEALQQLQKDSEAIRSQYAHYFDLSLVNNGVDETLKKLQEAFDQACSSPQWVPVSWVY

Like-named read-outs stand apart in the source and are kept apart here. Results are given in words; binding and its absence hold for the method and conditions named. Binding seen in cells or lysates may run through a third protein. A yes stands for co-enrichment or nearness to the bait. Other partners may have been found. Sequences can lack the tags named with a protein.
